No constants are given. Whether binding was seen depends on the method and setting. Binding seen in cells or lysates may run through a third protein. A result given as binding can be weak or reduced; the word gives no strength. Tags and fused reporters may be left off the sequences shown.
T1: Stt7 containing a haemagglutinin (HA)-tag at its C-terminal end (Stt7-HA) (Chlamydomonas reinhardtii) (UniProt Q84V18)
T1 sequence: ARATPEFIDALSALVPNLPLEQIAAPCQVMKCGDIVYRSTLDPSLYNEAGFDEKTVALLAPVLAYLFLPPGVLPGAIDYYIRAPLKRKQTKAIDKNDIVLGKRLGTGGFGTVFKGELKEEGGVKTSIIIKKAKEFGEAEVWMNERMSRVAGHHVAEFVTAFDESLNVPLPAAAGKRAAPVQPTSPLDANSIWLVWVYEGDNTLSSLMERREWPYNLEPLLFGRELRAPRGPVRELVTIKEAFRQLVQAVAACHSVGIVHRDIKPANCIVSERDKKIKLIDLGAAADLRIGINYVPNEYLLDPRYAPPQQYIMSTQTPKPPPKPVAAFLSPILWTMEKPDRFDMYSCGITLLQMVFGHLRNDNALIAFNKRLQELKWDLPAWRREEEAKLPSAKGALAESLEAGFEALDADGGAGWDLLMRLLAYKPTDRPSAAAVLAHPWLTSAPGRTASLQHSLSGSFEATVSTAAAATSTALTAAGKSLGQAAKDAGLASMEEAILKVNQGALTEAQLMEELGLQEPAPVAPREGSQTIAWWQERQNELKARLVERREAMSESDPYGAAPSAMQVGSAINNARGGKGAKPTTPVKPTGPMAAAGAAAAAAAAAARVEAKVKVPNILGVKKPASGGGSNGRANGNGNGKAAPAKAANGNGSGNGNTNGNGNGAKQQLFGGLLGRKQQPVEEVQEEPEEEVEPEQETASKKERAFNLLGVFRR

B1: Stt7 containing a haemagglutinin (HA)-tag at its C-terminal end (Stt7-HA) (enzyme, UniProt Q84V18 42-754)
chain: T1 sequence

molecular target: LHCII protein P11 (Chlamydomonas reinhardtii (endogenous)); experiment: co-IP; reciprocal: solubilized thylakoid membranes from the Stt7-HA strain precipitated with antibodies against the thylakoid proteins, immunoblotted with HA antibodies

binding	Molecule
binds	B1

molecular target: T1, Stt7 containing a haemagglutinin (HA)-tag at its C-terminal end (Stt7-HA) (Chlamydomonas reinhardtii); experiment: co-IP; thylakoid membranes (0.8 mg/ml) solubilized with n-dodecyl-β-maltoside, anti-HA-affinity matrix overnight at 4 °C, five washes in TBS-BSA (100 mM Tris/HCl pH 7.5, 150 mM NaCl, 0.05% BSA), immunoblot of the precipitate; Figure 3A with cells in state 1 or state 2, Figure 6C state not told

binding	Molecule
binds	Lhcbm5 (Chlamydomonas reinhardtii (endogenous))
binds	LHCII protein P13 (Chlamydomonas reinhardtii (endogenous))
binds	LHCII protein P17 (Chlamydomonas reinhardtii (endogenous))
binds	LHCII protein P11 (Chlamydomonas reinhardtii (endogenous))
binds	CP26 (Chlamydomonas reinhardtii (endogenous))
